Laboratory results published in PubChem BioAssay AID1487 (National Center for Advancing Translational Sciences (NCATS), 2009).
The list shows a part of the results. Further columns of the screen follow, without active or inactive calls. Most of these compounds were active or inconclusive in the main read-out, so they are no random draw. Potencies come from curve fits of mixed quality, noted in brackets.

Experiment: qHTS Assay for Modulators of Lamin A Splicing
Settings: HeLa LMNA splicing GFP/RFP minigene ratio, 48 h
Summary of the method: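 S3 HeLa stable clones carrying a lamin A-EGFP splicing minigene plus DsRed2 were seeded at 600 cells/well in Opti-MEM with 2% FBS, pin-dosed and incubated 48 h at 37°C. Acumen cytometry (488 nm) gave the GFP/RFP total-intensity ratio.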

[1] = measured here: GFP splicing reporter channel
[2] = measured here: RFP viability control channel

Row | Structure (SMILES) | AC50 [1] | AC50 [2]
1 | CNCc1cc(Br)c(OCC(=O)Nc2ccccc2OC)c(OC)c1 | 35.5 µM [falling, single point] | 
2 | O=C(c1noc2c1CCCCC2)N1CCN(c2cccc(Cl)c2)CC1 | 10 µM [falling, partial curve] | 0.0178 µM [falling, full curve, poor fit]
3 | COc1ccccc1N1CCN(C(=O)C(C)N(c2ccc(C)c(C)c2)S(C)(=O)=O)CC1 (centres undefined) | 35.5 µM [rising, single point] | 35.5 µM [rising, single point]
4 | Cc1ccc(-c2nc(NCc3ccco3)c3ccccc3n2)cc1 |  | 17.8 µM [rising, partial curve]
5 | Cc1c(C(=O)N2CC(C)OC(C)C2)sc2nc(-c3ccccc3)cn12 (centres undefined) | 12.6 µM [rising, partial curve] | 20 µM [rising, partial curve]
6 | COc1ccc(NC(=O)C2CCN(C3=NS(=O)(=O)C(c4ccc(C)c(C)c4)=C3C)CC2)c(OC)c1 | 8.91 µM [falling, partial curve, poor fit] | 3.98 µM [falling, full curve, poor fit]
7 | O=C(COc1ccc(Cl)cc1)Nc1nc(-c2cccs2)cs1 | 22.4 µM [rising, single point] | 31.6 µM [rising, single point]
8 | Cc1cccc(S(=O)(=O)NNC(=O)c2sc(C)nc2C)c1 |  | 14.1 µM [rising, single point]
9 | C=CCn1c(=O)c2c(nc(-c3ccc(S(=O)(=O)O)cc3)n2C)n(C)c1=O | 5.62 µM [falling, partial curve, poor fit] | 0.158 µM [rising, full curve, poor fit]
10 | COc1ccc(C(=O)n2c(C)c(CCO)c(=O)n2C)cc1 |  | 0.00282 µM [falling, full curve, poor fit]
11 | Cc1onc(-c2ccccc2)c1C(=O)Nc1cc(C(F)(F)F)ccc1N1CCOCC1 | 35.5 µM [falling, single point] | 5.62 µM [rising, single point]
12 | O=C(c1cc2ccc3cccnc3c2[nH]1)N1CCCCC1 | 15.8 µM [falling, partial curve] | 20 µM [falling, partial curve, poor fit]
13 | CCN(CC)c1ccc(S(=O)(=O)N2CCOCC2)cc1NS(C)(=O)=O | 0.0316 µM [falling, full curve, poor fit] | 
14 | Cc1nc(C)c(C(=O)N/N=C/c2ccco2)s1 | 6.31 µM [falling, single point] | 0.0562 µM [falling, partial curve, poor fit]
15 | CCOC(=O)c1c(C)[nH]c(C)c1C(=O)COC(=O)c1ccc(OC)c(OC)c1 |  | 7.08 µM [rising, partial curve]
16 | Cc1nnsc1C(=O)Nc1cccc(Cl)c1C | 0.794 µM [rising, full curve, poor fit] | 
17 | Cc1ccc(S(=O)(=O)NCC(=O)OCC(=O)Nc2ccccc2OC(F)F)cc1 |  | 14.1 µM [rising, partial curve, poor fit]
18 | CCc1cccc2c(C(=O)COC(=O)c3cccc(S(=O)(=O)N(C)C4CCCCC4)c3)c[nH]c12 |  | 31.6 µM [rising, single point]
19 | CS(=O)(=O)Nc1cccc(-c2ccc3ncnc(N4CCOCC4)c3c2)c1 | 14.1 µM [falling, partial curve] | 20 µM [falling, partial curve, poor fit]
20 | Cc1nn(-c2cccc(Cl)c2)c2c1C(c1cccnc1)C(C#N)=C(N)O2 (centres undefined) |  | 22.4 µM [rising, partial curve]
21 | O=C(CC1N=C2c3ccccc3N=C(SCC(=O)Nc3ccc(F)cc3)N2C1=O)NCc1ccco1 (centres undefined) |  | 1.12 µM [falling, single point]
22 | COc1cc(Nc2ncc3c(n2)CCN(Cc2ccc(OC(C)C)c(OC)c2)C3)cc(OC)c1 | 35.5 µM [falling, partial curve, poor fit] | 
23 | CCOC(=O)c1[nH]c2ccc(Br)cc2c1NC(=O)CCN1CCCC(C)C1 (centres undefined) | 15.8 µM [rising, single point] | 11.2 µM [rising, partial curve]
24 | O=C(Nc1c(C(=O)NCc2ccco2)cnn1-c1ccccc1)c1cccc(F)c1 | 8.91 µM [rising, partial curve] | 
25 | CCc1nn2c(=O)cc(COC(=O)c3ccc(NC(=O)COc4ccccc4C)cc3)nc2s1 | 0.0631 µM [falling, full curve, poor fit] | 
26 | Cc1nn(C)c(C)c1S(=O)(=O)N1CCC(CO)(Cc2ccc(Cl)cc2)CC1 |  | 0.447 µM [falling, full curve, poor fit]
27 | COc1ccc(NC(=O)c2csnn2)cc1Cl |  | 0.0447 µM [falling, full curve]

Row | Structure (SMILES) | AC50 [1] | AC50 [2]
28 | COc1ccc(CCNc2nc(C)nc3c2oc2ccccc23)cc1OC | 2 µM [rising, full curve] | 2.51 µM [rising, single point]
29 | Cc1ccccc1OCc1n[nH]c(=S)n1Cc1ccccc1 | 17.8 µM [rising, partial curve] | 31.6 µM [rising, partial curve]
30 | Clc1ccc2c(c1)C1=C(C(c3ccncc3)O2)C(c2ccc(Br)cc2)n2ncnc2N1 (centres undefined) | 3.98 µM [falling, full curve] | 12.6 µM [falling, single point]
31 | CN(C)c1cccc2c1c(NC(=O)Nc1ccc(Cl)cc1Cl)nn2C | 0.316 µM [rising, full curve, poor fit] | 
32 | CCOc1ccc(NC(=O)c2cc3cc(C)ccc3n2C)cc1 |  | 0.0141 µM [falling, full curve, poor fit]
33 | CCOc1ccc(NCc2nnc(SCC(=O)Nc3cc(C)on3)n2-c2ccccc2OC)cc1 |  | 14.1 µM [rising, single point]
34 | COCCN1C(=O)N[C@@H](c2ccccc2)C(C(C)=O)=C1C |  | 35.5 µM [rising, single point]
35 | CC(C)(C)NC(=O)CSc1nc2ccc(Nc3nc(N4CCOCC4)nc(N4CCOCC4)n3)cc2s1 | 35.5 µM [falling, single point] | 35.5 µM [falling, single point]
36 | COc1ccc(CCn2c(C)nc3c(c(=O)c4ccccc4n3C)c2=O)cc1 | 0.708 µM [rising, partial curve] | 0.398 µM [rising, full curve, poor fit]
37 | CCC(c1nnnn1CS(=O)(=O)c1ccc(C)cc1)N1CCN(c2nc3ccccc3s2)CC1 (centres undefined) |  | 7.08 µM [rising, partial curve]
38 | N#Cc1c(NC(=O)c2cc(C3CC3)on2)sc2c1CCC2 |  | 2.82 µM [rising, single point]
39 | Cc1cc(NC(=O)c2ccccc2F)ccc1-c1nc2ccccc2s1 |  | 5.62 µM [falling, partial curve, poor fit]
40 | Cc1ccc(-n2cnc3cc(C(=O)NCCC4=CCCCC4)ccc32)c(C)c1 | 35.5 µM [falling, single point] | 
41 | NC(=S)n1[nH]c(-c2ccc([N+](=O)[O-])cc2)c(N=Nc2ccccc2[N+](=O)[O-])c1=O |  | 1 µM [rising, single point]
42 | O=C(/C=C/c1ccco1)NCc1ccc(F)cc1 | 0.00794 µM [falling, full curve, poor fit] | 0.00794 µM [falling, full curve, poor fit]
43 | O=C(CSc1nnc(-c2ccc(Cl)cc2)n1-c1ccc(Cl)cc1)N/N=C/c1ccco1 |  | 17.8 µM [falling, single point]
44 | CCOC(=O)Cc1ccc(NC(=O)N(Cc2ccc(OC)cc2)C2CCN(C(C)=O)CC2)cc1 | 35.5 µM [rising, partial curve] | 
45 | O=C(/C=C/c1ccc(F)cc1)N1CCCN(C(=O)/C=C/c2ccc(F)cc2)CC1 |  | 35.5 µM [rising, single point]
46 | CCOC(=O)CSc1nnc(-c2cccnc2)n1C | 0.316 µM [falling, full curve, poor fit] | 0.158 µM [falling, full curve, poor fit]
47 | CCc1ccc(NC(=O)c2sc(-n3nc(C)c(CCC(C)C)c3C)nc2C)cc1 |  | 12.6 µM [rising, partial curve, poor fit]
48 | Cc1cc(C(=O)COc2ccccc2Cl)c(C)n1-c1ccc2c(c1)OCO2 | 7.94 µM [rising, partial curve, poor fit] | 12.6 µM [rising, partial curve]
49 | O=C(NC1CC(=O)N(c2ccc(F)cc2)C1)C1CCCC1 (centres undefined) |  | 3.55 µM [falling, partial curve, poor fit]
50 | O=C(CN1CCN(C(=O)c2ccco2)CC1)Nc1ccc(Cl)c(C(F)(F)F)c1 |  | 17.8 µM [rising, single point]
51 | CCN(CC)S(=O)(=O)c1cccc(-c2nnc(SCCOc3ccc(Cl)cc3)o2)c1 |  | 6.31 µM [rising, full curve]
52 | CC1=C(C(N)=O)C(c2ccc3c(c2)OCO3)n2nc(-c3cccc(C)c3)nc2N1 (centres undefined) | 35.5 µM [falling, single point] | 35.5 µM [falling, single point]
53 | O=C(Nc1nc(-c2cc(F)ccc2F)cs1)c1ccccn1 | 35.5 µM [rising, single point] | 25.1 µM [rising, partial curve]

Among those listed so far, these have a thiophene ring, fused or not.
Row | Structure (SMILES) | AC50 [1] | AC50 [2]
7 | O=C(COc1ccc(Cl)cc1)Nc1nc(-c2cccs2)cs1 | 22.4 µM [rising, single point] | 31.6 µM [rising, single point]
38 | N#Cc1c(NC(=O)c2cc(C3CC3)on2)sc2c1CCC2 |  | 2.82 µM [rising, single point]
